Results: publication PMC9646841, “A bead-based GPCR phosphorylation immunoassay for high-throughput ligand profiling and GRK inhibitor screening” (Communications Biology, 2022)
Values joined by “and” are separate entries in the source; they are usually repeats but may differ in a detail not shown here. Identical values can stand only once. Further values from the same series stand in other lists.

System: MOP (GIRK2 channel activation)
Experiment: GIRK channel membrane potential assay (G protein signaling)
Type: cell-based, mouse
Conditions: single replicate values

| Structure (SMILES) | values normalised to 1µM DAMGO (individual values) (5nM ligand) | values normalised to 1µM DAMGO (individual values) (10nM ligand) | values normalised to 1µM DAMGO (individual values) (50nM ligand) | values normalised to 1µM DAMGO (individual values) (100nM ligand) | values normalised to 1µM DAMGO (individual values) (1pM ligand) | values normalised to 1µM DAMGO (individual values) (10pM ligand) | values normalised to 1µM DAMGO (individual values) (100pM ligand) | values normalised to 1µM DAMGO (individual values) (1nM ligand) |
| --- | --- | --- | --- | --- | --- | --- | --- | --- |
| C[C@@H](NC(=O)[C@@H](N)Cc1ccc(O)cc1)C(=O)NCC(=O)N(C)[C@@H](Cc1ccccc1)C(=O)NCCO [DAMGO, [D-Ala^2,N-MePhe^4,Gly-ol]-enkephalin] | 98.1543 and 95.9256 and 90.2745 and 88.4941 and 198.451 and 65.7134 and 94.0293 and 97.6782 and 99.0369 and 94.9994 and 82.4278 and 74.9003 and 75.9074 and 62.345 and 65.9984 and 92.7641 | 99.7757 and 97.0173 and 100.232 and 82.718 and 90.4879 and 64.3239 and 93.1242 and 94.8055 and 95.5477 and 91.0532 and 187.536 and 89.7144 and 88.2056 and 53.8054 and 104.858 and 94.851 | 98.7203 and 88.7015 and 94.997 and 106.546 and 97.9398 and 103.49 and 102.516 and 95.364 and 104.46 and 112.036 and 100.414 and 97.3935 and 93.9691 and 111.448 and 111.008 and 99.7765 | 85.4659 and 92.6156 and 103.032 and 97.8778 and 100.113 and 87.5181 and 100.972 and 95.3932 and 94.8561 and 105.848 and 103.121 and 97.9815 | – | – | – | – |
| CN1CC[C@]23c4c5ccc(O)c4O[C@H]2[C@@H](O)C=C[C@H]3[C@H]1C5 [Morphine, morphine] | – | – | – | – | 4.5 and 5.601 and 10.3934 and 7.19 and 9.526 and 7.83 and 4.903 and 6.518 and -2.124 and 4.4986 and 3.206 and 10.9963 and 10.3625 and 3.144 and 12.1183 and 5.101 | 3.105 and 0.4102 and 8.268 and 8.601 and 3.747 and -0.7087 and 9.445 and 9.5684 and 3.45 and 2.082 and 3.914 and 14.9063 and 6.125 and 10.8447 and 8.643 and 4.027 | 4.251 and 1.078 and 13.2941 and 4.915 and -1.457 and 4.724 and 2.427 and 7.187 and 11.0478 and 5.511 and 4.484 and 13.2061 and 9.336 and 4.6062 and 14.8476 and -0.08555 | 4.414 and 12.324 and 9.993 and 4.598 and 16.7467 and 10.1007 and 10.9155 and 17.43 and 10.0266 and 14.5658 and 0.6635 |
